No constants are given. Whether binding was seen depends on the method and setting. Some results given as binding are weak or reduced against the parent protein; the word gives no strength. Where a sequence is shown, tags or fusion partners need not be part of it.
Target: T1, ADAMTS-5 3×FLAG full length (human) (UniProt Q9UNA0)
T1 sequence: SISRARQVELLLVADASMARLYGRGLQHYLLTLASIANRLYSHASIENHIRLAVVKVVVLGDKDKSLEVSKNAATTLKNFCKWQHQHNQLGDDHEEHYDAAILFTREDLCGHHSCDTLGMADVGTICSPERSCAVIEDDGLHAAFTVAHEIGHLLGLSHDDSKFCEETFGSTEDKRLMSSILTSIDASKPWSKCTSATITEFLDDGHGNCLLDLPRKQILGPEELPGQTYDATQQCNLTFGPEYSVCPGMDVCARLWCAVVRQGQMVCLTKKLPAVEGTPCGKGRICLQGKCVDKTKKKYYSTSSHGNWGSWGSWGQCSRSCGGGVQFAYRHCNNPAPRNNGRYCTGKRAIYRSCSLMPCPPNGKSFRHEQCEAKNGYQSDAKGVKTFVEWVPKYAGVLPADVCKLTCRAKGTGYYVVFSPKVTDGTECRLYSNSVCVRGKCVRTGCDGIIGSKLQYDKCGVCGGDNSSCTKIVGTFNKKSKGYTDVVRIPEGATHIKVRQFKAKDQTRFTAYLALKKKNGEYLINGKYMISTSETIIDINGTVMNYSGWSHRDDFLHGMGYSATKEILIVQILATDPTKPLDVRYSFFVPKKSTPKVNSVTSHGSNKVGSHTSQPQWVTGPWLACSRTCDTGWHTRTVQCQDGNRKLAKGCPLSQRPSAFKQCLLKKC
Assay: competition ELISA, CRB0017_IgG4 coated at 2 µg/ml, ADAMTS-5 at 4 µg/ml with Syndecan-4 at 0.1 µg/ml, anti-FLAG detection; competitor CRB0017_IgG4

binding: binds
B1: Syndecan-4 (protein, UniProt P31431 19-145, looked up)
chain: ESIRETEVIDPQDLLEGRYFSGALPDDEDVVGPGQESDDFELSGSGDLDDLEDSMIGPEVVHPLVPLDNHIPERAGSGSQVPTEPKKLEENEVIPKRISPVEESEDVSNKVSMSSTVQGSNIFERTE
